The series can be described thus: general procedure: peptide synthesis; HATU/DIPEA. As to conditions: conjugation step.

In the case of DIBAC-Suc-PEG4-VC-PAB-MMAE, the conjugation yield came out at 19.6%.

The values above are taken from patent publication US11786603 (dated 2023).
